This is one part of the list.

By UniProt entry, the sequences of proteins in these tests, tags left out.
UniProt Q0JBA9, entry or part of it: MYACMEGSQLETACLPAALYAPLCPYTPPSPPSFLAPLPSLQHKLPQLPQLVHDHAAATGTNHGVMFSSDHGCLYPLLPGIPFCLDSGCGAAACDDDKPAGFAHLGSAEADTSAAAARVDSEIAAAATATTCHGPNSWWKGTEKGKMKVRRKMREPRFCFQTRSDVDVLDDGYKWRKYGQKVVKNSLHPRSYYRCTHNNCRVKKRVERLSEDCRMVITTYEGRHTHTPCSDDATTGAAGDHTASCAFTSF

The assay has as its target OsWRKY34 (Oryza sativa, UniProt Q0JBA9 1-250). Kind of assay: protein-binding microarray (RPBM); PBS, 2% BSA, 51.3 ng/ul salmon testes DNA, 50 uM zinc acetate, 200 nM TF, 25 C, 1 h; high values mean tight binding. The settings on record: protein: recombinant; tags: N-terminal polyhistidine and DsRed monomer fusion (pET32a); label: CyDye5-dUTP incorporated in the synthesized complementary strand; 3' TTTTT single-stranded linker to array surface; dsDNA, one strand shown. The essentials:
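In PBS with 2% BSA, salmon testes DNA and 50 µM zinc acetate, 200 nM protein was incubated on a custom Agilent array at 25 °C for 1 h and then washed off. The array had been made double-stranded by primer extension with Cy5-dUTP and blocked with 2% BSA. The proteins were transcription factors fused N-terminally to polyhistidine and DsRed, expressed in E. coli BL21-CodonPlus and purified on Ni–NTA. The binding signal is per-feature fluorescence intensity (arbitrary units) from an Axon 4000B scanner.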
On to “CAATGGTCACTACATATTTTGTTTGCACCACATATTTCTCCGGAGTCACCTAGTGCAG”, for which the binding signal is 9620 fluorescence intensity (a.u.). To “CAGGGCCTTAATCGTATGTATCAGCTGAATTCCTGTATTGCGGAGTCACCTAGTGCAG” belongs 8480 fluorescence intensity (a.u.); to “GGTTTTGGAGGGCGGTTTCGCTGATGTGGCGGTGTTGACTCGGAGTCACCTAGTGCAG”, 13500 fluorescence intensity (a.u.); to “CCTTTTTTTGGCAAGGAGTTCCCACCGTGAGATCGAGATCCGGAGTCACCTAGTGCAG”, 9140 fluorescence intensity (a.u.). The value for “ATATTACATGTTTTACTTCTGCAGTCTGTATAATTTCTTCCGGAGTCACCTAGTGCAG” was 14400 fluorescence intensity (a.u.); that for “CGCCATGGCTGCCGCCGCCGCCGCCGCCTCACTCTCCGTCCGGAGTCACCTAGTGCAG” was 9320 fluorescence intensity (a.u.). Regarding “TTTTTTTCTTTCTAAATTTCCTTTGTGGCTTGCTCTCTCCCGGAGTCACCTAGTGCAG”, the binding signal is 8490 fluorescence intensity (a.u.). The value for “TACCTCCATATTTTAATGTATGACGCCGTTGACTTTTTATCGGAGTCACCTAGTGCAG” was 28900 fluorescence intensity (a.u.); that for “GAGACGTTGTATATCTGGTTTTGTGGTTTGGGGATGTTTTCGGAGTCACCTAGTGCAG” was 20100 fluorescence intensity (a.u.); that for “CATATGTTTGACCATTCGTCTTATTCAAAAATTTTATTCACGGAGTCACCTAGTGCAG” was 9660 fluorescence intensity (a.u.). The value for “CACCCCACGTCACGCCGCACCCGCACCGTATCCTGCCCAACGGAGTCACCTAGTGCAG” was 8990 fluorescence intensity (a.u.); that for “CGCAACTCCCCGATCCCACGTGGTCACCGCGACCTCTCTACGGAGTCACCTAGTGCAG” was 8440 fluorescence intensity (a.u.). Take “GGGAGTAGTATTGATTTGACCATCGTTGACCAAGAATAAGCGGAGTCACCTAGTGCAG”: the binding signal was 17400 fluorescence intensity (a.u.).

Turning to “GCTTAGTTTGATCTGGTTGAGGGGATACATATGTAGCTGTCGGAGTCACCTAGTGCAG”, the binding signal is 9980 fluorescence intensity (a.u.). The value for “GGTGTAATTAGCTATCCTGTGAAAAGGTGTATTGGATCATCGGAGTCACCTAGTGCAG” was 8250 fluorescence intensity (a.u.); that for “GGGCGGGTGAGCAGTATTGTGCCATGTGAAACAGATACTACGGAGTCACCTAGTGCAG” was 14900 fluorescence intensity (a.u.). To “GGTCCCCTACAAAGGTCTAGAGGTCACTAGTAGTACACACCGGAGTCACCTAGTGCAG” belongs 8570 fluorescence intensity (a.u.); to “ATCTCTGATTTTTTTTTACATTTTTTTGCAACTTTTTGGACGGAGTCACCTAGTGCAG”, 8080 fluorescence intensity (a.u.). To “TTCGGATGCCACTTTTCCCAACCTCTCTCATTCGTTTTCCCGGAGTCACCTAGTGCAG” belongs 9580 fluorescence intensity (a.u.). Consider “TTTGTGGTTGGTTGTATCGTGATCCTGAGTGTGAAAAAACCGGAGTCACCTAGTGCAG”, for which the binding signal is 8120 fluorescence intensity (a.u.).

For “CGTGTCCGAAAAATCCTTCCAACATCCGGTCAAATATCTGCGGAGTCACCTAGTGCAG”, the binding signal is 8180 fluorescence intensity (a.u.).

With “ATGTTATTATGTGTTGGTCTTATTTTGTGGACTAATGTAACGGAGTCACCTAGTGCAG”, the binding signal is 8180 fluorescence intensity (a.u.). To “TGAGTGTACGTACCGTTGTCAGTGTCCGCGTTGTAATTCTCGGAGTCACCTAGTGCAG” belongs 10600 fluorescence intensity (a.u.); to “CACCGCTGCAACTACTGCCGCCGAGCCACGTCGCGCCGCCCGGAGTCACCTAGTGCAG”, 8430 fluorescence intensity (a.u.). To “CTCGTTGATAACATTTGGATAAATCATTTTGTTCCTATTTCGGAGTCACCTAGTGCAG” belongs 9810 fluorescence intensity (a.u.); to “CCTGTATAAATTCTTGTGTGTCTCTTGCTGCGCGGGGTGGCGGAGTCACCTAGTGCAG”, 12300 fluorescence intensity (a.u.); to “TGCAGCTTTGCCGCGCGTATTTTCTAGTCCCTATCTGGATCGGAGTCACCTAGTGCAG”, 8580 fluorescence intensity (a.u.). On to “TGTTTAGCTACTTCCTCGCTTTCTTTAAGTATGTTTCATACGGAGTCACCTAGTGCAG”, for which the binding signal is 10300 fluorescence intensity (a.u.). To “TTTTTGCGTGCTCTTATCCTGTTTAGTTGTTGGCTTGTGACGGAGTCACCTAGTGCAG” belongs 10400 fluorescence intensity (a.u.); to “TCATCAGAGTACCAATCCCCTTTATACCTGAACCTTTACACGGAGTCACCTAGTGCAG”, 8420 fluorescence intensity (a.u.). To “ATGTACGACGCTATTGACTTTTTAACCAACGTTTGACTATCGGAGTCACCTAGTGCAG” belongs 11000 fluorescence intensity (a.u.); to “ACTCATGTCCGACGTCCTGCTGCTCCTGTCGCTCCACTGACGGAGTCACCTAGTGCAG”, 8450 fluorescence intensity (a.u.); to “ATTTCTTTGTTCATATACACTTGATATACCTTACTCCCAACGGAGTCACCTAGTGCAG”, 9080 fluorescence intensity (a.u.). As to “AGCTCTCTCTCTCTCTCTCTCGTTCTTGCGGGCCTGCGACCGGAGTCACCTAGTGCAG”, the binding signal was 8380 fluorescence intensity (a.u.). To “TGTTTGGTAGTAGTTACATTAATAATTCCATTGAATTTACCGGAGTCACCTAGTGCAG” belongs 8680 fluorescence intensity (a.u.); to “AAGATACACGATTGATTCATTGTTTGCACCAACAATATGCCGGAGTCACCTAGTGCAG”, 10100 fluorescence intensity (a.u.). The value for “GTACAGCGATACTCTTATCTTTTTTTAAAAAAATGTTTCCCGGAGTCACCTAGTGCAG” was 9200 fluorescence intensity (a.u.); that for “TACTCCCTTCTTCCTTAGATGTTTGACACCGTTGACTTTTCGGAGTCACCTAGTGCAG” was 16900 fluorescence intensity (a.u.); that for “AAAGGCTTGCATTGTGGTAGAGAGGGGATGCATGCTACTCCGGAGTCACCTAGTGCAG” was 8400 fluorescence intensity (a.u.).

For the sequence “GTTACACAATTCTACACTGGTCATACAAGGCAGCACTATCCGGAGTCACCTAGTGCAG”, the binding signal is 8250 fluorescence intensity (a.u.).

Regarding “AGTATGTCATCTGTGTTTAAGTCGATTTTAAGTTCATTCGCGGAGTCACCTAGTGCAG”, the binding signal was 8180 fluorescence intensity (a.u.). The value for “TATGTGGGTGATTTGTTACAACGGCGCGTTCCATAATATTCGGAGTCACCTAGTGCAG” was 11500 fluorescence intensity (a.u.).
